For this assay, the target named is Myc-IRE1α (inositol-requiring enzyme 1α) (human) (UniProt O75460). The assay can be described thus: affinity purification with mass spectrometry; C28/I2 cells transfected with pcDNA3.1(−)-Myc-IRE1α, lysed in IP buffer after 48 h, anti-Myc antibody overnight at 4 °C, magnetic beads washed five times; label-free quantitative proteomics.

The chains behind the UniProt entries cited, without tags or fusion partners. Residues count along the entry.
UniProt O75460, residues 19-977: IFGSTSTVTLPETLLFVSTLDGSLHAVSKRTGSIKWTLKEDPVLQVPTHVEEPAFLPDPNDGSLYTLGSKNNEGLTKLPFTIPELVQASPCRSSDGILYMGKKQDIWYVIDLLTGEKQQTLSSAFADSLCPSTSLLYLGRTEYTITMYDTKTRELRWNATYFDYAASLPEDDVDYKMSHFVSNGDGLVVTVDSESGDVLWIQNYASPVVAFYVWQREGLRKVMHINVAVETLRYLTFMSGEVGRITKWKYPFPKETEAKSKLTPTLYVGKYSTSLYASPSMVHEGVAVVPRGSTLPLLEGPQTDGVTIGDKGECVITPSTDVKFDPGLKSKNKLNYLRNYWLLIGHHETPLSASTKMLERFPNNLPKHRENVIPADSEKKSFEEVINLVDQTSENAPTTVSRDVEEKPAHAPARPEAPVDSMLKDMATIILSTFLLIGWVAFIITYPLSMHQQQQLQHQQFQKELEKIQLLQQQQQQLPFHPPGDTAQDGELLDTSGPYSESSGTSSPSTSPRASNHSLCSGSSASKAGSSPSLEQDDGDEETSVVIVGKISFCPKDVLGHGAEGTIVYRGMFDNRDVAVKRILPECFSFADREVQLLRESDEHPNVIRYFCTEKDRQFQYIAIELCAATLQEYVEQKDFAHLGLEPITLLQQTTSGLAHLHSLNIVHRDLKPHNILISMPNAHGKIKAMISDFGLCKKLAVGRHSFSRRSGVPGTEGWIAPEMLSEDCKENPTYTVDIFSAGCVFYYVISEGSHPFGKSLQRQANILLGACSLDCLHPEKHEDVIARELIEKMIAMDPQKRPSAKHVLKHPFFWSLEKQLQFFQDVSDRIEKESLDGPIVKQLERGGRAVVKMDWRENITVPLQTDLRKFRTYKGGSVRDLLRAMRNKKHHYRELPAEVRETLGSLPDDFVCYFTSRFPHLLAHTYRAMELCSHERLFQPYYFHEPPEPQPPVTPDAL
UniProt P28799, residues 18-593: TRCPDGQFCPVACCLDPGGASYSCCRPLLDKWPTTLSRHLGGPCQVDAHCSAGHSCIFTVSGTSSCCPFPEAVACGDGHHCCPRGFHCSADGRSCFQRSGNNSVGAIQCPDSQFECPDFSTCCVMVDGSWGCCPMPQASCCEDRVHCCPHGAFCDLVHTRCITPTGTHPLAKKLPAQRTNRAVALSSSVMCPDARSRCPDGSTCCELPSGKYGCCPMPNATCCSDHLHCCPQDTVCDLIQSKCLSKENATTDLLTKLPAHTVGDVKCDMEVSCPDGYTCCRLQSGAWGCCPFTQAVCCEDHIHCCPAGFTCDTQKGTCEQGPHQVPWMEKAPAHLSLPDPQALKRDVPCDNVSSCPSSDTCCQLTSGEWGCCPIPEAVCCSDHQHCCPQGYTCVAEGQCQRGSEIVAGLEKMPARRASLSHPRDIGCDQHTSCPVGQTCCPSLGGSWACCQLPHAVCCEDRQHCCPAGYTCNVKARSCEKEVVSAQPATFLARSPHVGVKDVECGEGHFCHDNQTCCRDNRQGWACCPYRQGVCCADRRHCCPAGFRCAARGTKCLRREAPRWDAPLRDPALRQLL

Results are given in words; binding and its absence hold for the method and conditions named. In cells and extracts the contact can be indirect. A yes stands for co-enrichment or nearness to the bait. Other partners may have been found.

As for “progranulin (PGRN) (from UniProt P28799 18-593)”, the binding result is given as “binds”.

Source of the values: PMC10689778.
